# PubChem BioAssay AID1259286, Sanger Institute, 2017
# Test: 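Kinase knock-downs that reduce colorectal cancer cell viability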 (primary screen)
# Cell system: NCI-H630 human colorectal cancer cells
# Reagents: siRNA pool against human genes
# Conditions: anchor drugs BYL719 at 1 µM, cetuximab at 5 µg/ml or trametinib at 10 nM, or DMSO vehicle alone; exposure time not given
# Measured: 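Replicate-averaged viability as a fraction of non-targeting control, knock-down-alone robust z-score, and per-drug synergy scores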
# Scale: viability z-score, knock-down alone: higher = more viable cells, weaker knock-down effect; viability vs control, knock-down alone: higher = more viable cells; synergy score with trametinib: higher = stronger synergistic killing with trametinib; synergy score with BYL719: higher = stronger synergistic killing with BYL719; synergy score with cetuximab: higher = stronger synergistic killing with cetuximab
# Hit rule: 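Essential call: robust z-score of viability with siRNA alone lower than -3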
# Calls: active = essential when knocked down alone; inactive = not essential alone
# This is a random part of 794 deposited reagents. 17 of them (2.1%) count as active. 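Calls use knock-down alone only; synergy above 0.15 marked separately; viability seems capped at control level; exposure time not given.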 The record does not give: the amount of reagent, the time to read-out.
Gene,"viability z-score, knock-down alone","viability vs control, knock-down alone (fraction of control)",synergy score with trametinib,synergy score with BYL719,synergy score with cetuximab,Outcome
DCLK3 (GeneID 85443),0.464,1,0.0082,-0.00312,0.026,inactive
NEK8 (GeneID 284086),0.464,1,-0.0479,-0.0756,0.102,inactive
BRDT (GeneID 676),-0.178,0.976,-0.071,-0.0478,0.034,inactive
EPHA10 (GeneID 284656),0.464,1,-0.041,-0.00216,0.0804,inactive
ABL1 (GeneID 25),0.464,1,0.0257,-0.00211,0.00759,inactive
PTK7 (GeneID 5754),-1.1,0.941,0.0206,0.0449,0.0756,inactive
SCYL1 (GeneID 57410),0.464,1,-0.0479,-0.0488,-0.0545,inactive
TYRO3 (GeneID 7301),0.359,0.996,-0.0516,-0.0587,0.00807,inactive
NRK (GeneID 203447),0.464,1,-0.0479,-0.00523,-0.0127,inactive
CDK18 (GeneID 5129),-3.08,0.866,-0.101,-0.124,0.0524,active
HUS1 (GeneID 3364),-0.522,0.963,-0.0141,-0.038,-0.034,inactive
DCLK1 (GeneID 9201),0.464,1,-0.0479,-0.0433,-0.0177,inactive
PRKAR1B (GeneID 5575),0.256,0.992,-0.0554,0.0781,0.2,inactive
SNRK (GeneID 54861),-0.0666,0.98,0.0784,0.0209,0.121,inactive
BRSK2 (GeneID 9024),0.464,1,-0.0479,0.0128,0.027,inactive
NEK3 (GeneID 4752),-0.686,0.957,-0.0893,0.0457,0.0578,inactive
CDKN1B (GeneID 1027),0.366,0.996,0.00713,-0.0363,-0.0889,inactive
WT1 (GeneID 7490),-1.09,0.941,-0.079,-0.135,-0.0373,inactive
PDK3 (GeneID 5165),0.464,1,-0.0479,-0.0246,0.0963,inactive
RPS6KA5 (GeneID 9252),0.464,1,0.0389,-0.0211,0.0834,inactive
PRKAA1 (GeneID 5562),0.464,1,-0.0147,-0.027,0.0724,inactive
NME6 (GeneID 10201),-0.0209,0.982,-0.0176,-0.00475,0.0481,inactive
CAMK4 (GeneID 814),0.464,1,-0.0479,-0.0679,0,inactive
PAK6 (GeneID 56924),0.464,1,-0.0479,-0.0814,0.0165,inactive
PDGFRL (GeneID 5157),-1.11,0.94,-0.00694,-0.136,-0.0281,inactive
PNKP (GeneID 11284),0.464,1,-0.0479,-0.0814,-0.0441,inactive
DGUOK (GeneID 1716),0.464,1,-0.0479,0.0239,0.0258,inactive
ADGRL2 (GeneID 23266),0.464,1,-0.0457,0.0969,0.0115,inactive
MAPK6 (GeneID 5597),0.225,0.991,-0.0565,0.0287,-0.017,inactive
PRKCI (GeneID 5584),0.216,0.991,-0.0568,0.0607,0.0104,inactive
PIK3R4 (GeneID 30849),-2.28,0.896,0.0287,0.0361,-0.0232,inactive
DAPK3 (GeneID 1613),0.464,1,0.00065,0.0506,0.0188,inactive
GK (GeneID 2710),0.464,1,0.01,-0.0814,0.0133,inactive
MKNK1 (GeneID 8569),-1.25,0.935,-0.105,-0.0236,-0.0412,inactive

Targets listed so far whose gene name starts with C or c:
Gene,"viability z-score, knock-down alone","viability vs control, knock-down alone (fraction of control)",synergy score with trametinib,synergy score with BYL719,synergy score with cetuximab,Outcome
CDK18 (GeneID 5129),-3.08,0.866,-0.101,-0.124,0.0524,active
CDKN1B (GeneID 1027),0.366,0.996,0.00713,-0.0363,-0.0889,inactive
CAMK4 (GeneID 814),0.464,1,-0.0479,-0.0679,0,inactive

More records follow.
Gene,"viability z-score, knock-down alone","viability vs control, knock-down alone (fraction of control)",synergy score with trametinib,synergy score with BYL719,synergy score with cetuximab,Outcome
STK39 (GeneID 27347),-0.782,0.953,-0.0686,-0.0561,-0.00413,inactive
IP6K2 (GeneID 51447),0.464,1,-0.00539,0.0381,-0.0133,inactive
MAPK10 (GeneID 5602),0.464,1,-0.0479,-0.0814,-0.0571,inactive
CHKB (GeneID 1120),0.464,1,0.0237,-0.0434,-0.0264,inactive
CDK11A (GeneID 728642),-2.06,0.905,-0.0324,-0.0928,-0.0618,inactive
TEC (GeneID 7006),0.464,1,-0.0391,0.0403,0.0853,inactive
PHKB (GeneID 5257),0.464,1,-0.027,-0.0814,0.000964,inactive
PAK3 (GeneID 5063),0.464,1,0.00894,0.0647,0.069,inactive
CDK2 (GeneID 1017),-0.293,0.971,-0.0751,-0.0861,0.0553,inactive
CDK3 (GeneID 1018),0.464,1,-0.0479,-0.0268,-0.0526,inactive
WIPF1 (GeneID 7456),0.464,1,0.0541,0.0283,0.0216,inactive
MAP3K19 (GeneID 80122),0.263,0.992,0.00249,0.166,0.0765,inactive
ULK4 (GeneID 54986),-0.618,0.959,-0.0764,-0.113,0.14,inactive
GSK3B (GeneID 2932),0.464,1,-0.0479,-0.0814,-0.121,inactive
BRD3 (GeneID 8019),0.464,1,-0.0479,-0.0313,0.0128,inactive
IP6K3 (GeneID 117283),-1.43,0.928,0.0216,0.0707,0.0983,inactive
MAPKAPK2 (GeneID 9261),0.464,1,-0.0479,0.0149,-0.00152,inactive
PIM2 (GeneID 11040),0.464,1,-0.0479,0.0286,-0.022,inactive
MAP3K12 (GeneID 7786),0.464,1,-0.0479,-0.0524,0.0431,inactive
LCK (GeneID 3932),0.464,1,-0.0479,-0.0814,-0.00365,inactive
MAP3K3 (GeneID 4215),0.464,1,-0.0426,-0.0814,0.0325,inactive
PPP2R1A (GeneID 5518),0.464,1,-0.0479,-0.0814,0.0298,inactive
CDC42BPG (GeneID 55561),0.0349,0.984,-0.0633,-0.0691,0.0577,inactive
CSNK2B (GeneID 1460),0.464,1,-0.0479,-0.0325,0.117,inactive
COMMD3 (GeneID 23412),0.464,1,-0.0479,-0.0814,0.00544,inactive
HK3 (GeneID 3101),0.464,1,-0.0479,0.0335,0.0549,inactive
PI4K2A (GeneID 55361),0.464,1,-0.0479,-0.0373,0.0142,inactive
COASY (GeneID 80347),-0.0701,0.98,0.00622,0.0927,0.0763,inactive
MAK (GeneID 4117),0.398,0.997,-0.0503,-0.0837,0.088,inactive
